Assay results reported in the supplement of paper PMC10849652.
The other results are listed elsewhere or left out.

Sequences of proteins named here, by UniProt entry; tags and fusion partners are left off. A change or cut given only in a name is not applied to a line headed by its entry.
UniProt P51948: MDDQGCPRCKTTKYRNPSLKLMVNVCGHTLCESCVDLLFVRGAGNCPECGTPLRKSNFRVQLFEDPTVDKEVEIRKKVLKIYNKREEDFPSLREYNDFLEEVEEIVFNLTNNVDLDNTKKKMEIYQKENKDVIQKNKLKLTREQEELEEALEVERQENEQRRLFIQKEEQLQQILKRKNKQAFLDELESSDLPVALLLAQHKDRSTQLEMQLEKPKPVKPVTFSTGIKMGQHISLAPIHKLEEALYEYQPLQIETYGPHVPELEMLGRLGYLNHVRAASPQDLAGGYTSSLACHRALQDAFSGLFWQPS
UniProt Q9NQG6: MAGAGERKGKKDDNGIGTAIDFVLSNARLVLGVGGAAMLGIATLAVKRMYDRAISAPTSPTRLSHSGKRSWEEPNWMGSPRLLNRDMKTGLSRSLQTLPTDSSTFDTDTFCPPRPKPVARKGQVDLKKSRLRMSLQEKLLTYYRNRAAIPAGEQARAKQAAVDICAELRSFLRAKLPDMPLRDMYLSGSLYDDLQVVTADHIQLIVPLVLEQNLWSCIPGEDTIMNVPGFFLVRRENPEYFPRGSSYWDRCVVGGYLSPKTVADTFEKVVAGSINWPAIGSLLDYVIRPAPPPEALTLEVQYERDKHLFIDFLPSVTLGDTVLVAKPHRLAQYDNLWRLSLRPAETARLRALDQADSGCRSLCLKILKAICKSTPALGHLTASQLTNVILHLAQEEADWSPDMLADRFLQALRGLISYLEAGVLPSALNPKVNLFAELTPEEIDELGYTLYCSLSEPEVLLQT
UniProt Q96T76: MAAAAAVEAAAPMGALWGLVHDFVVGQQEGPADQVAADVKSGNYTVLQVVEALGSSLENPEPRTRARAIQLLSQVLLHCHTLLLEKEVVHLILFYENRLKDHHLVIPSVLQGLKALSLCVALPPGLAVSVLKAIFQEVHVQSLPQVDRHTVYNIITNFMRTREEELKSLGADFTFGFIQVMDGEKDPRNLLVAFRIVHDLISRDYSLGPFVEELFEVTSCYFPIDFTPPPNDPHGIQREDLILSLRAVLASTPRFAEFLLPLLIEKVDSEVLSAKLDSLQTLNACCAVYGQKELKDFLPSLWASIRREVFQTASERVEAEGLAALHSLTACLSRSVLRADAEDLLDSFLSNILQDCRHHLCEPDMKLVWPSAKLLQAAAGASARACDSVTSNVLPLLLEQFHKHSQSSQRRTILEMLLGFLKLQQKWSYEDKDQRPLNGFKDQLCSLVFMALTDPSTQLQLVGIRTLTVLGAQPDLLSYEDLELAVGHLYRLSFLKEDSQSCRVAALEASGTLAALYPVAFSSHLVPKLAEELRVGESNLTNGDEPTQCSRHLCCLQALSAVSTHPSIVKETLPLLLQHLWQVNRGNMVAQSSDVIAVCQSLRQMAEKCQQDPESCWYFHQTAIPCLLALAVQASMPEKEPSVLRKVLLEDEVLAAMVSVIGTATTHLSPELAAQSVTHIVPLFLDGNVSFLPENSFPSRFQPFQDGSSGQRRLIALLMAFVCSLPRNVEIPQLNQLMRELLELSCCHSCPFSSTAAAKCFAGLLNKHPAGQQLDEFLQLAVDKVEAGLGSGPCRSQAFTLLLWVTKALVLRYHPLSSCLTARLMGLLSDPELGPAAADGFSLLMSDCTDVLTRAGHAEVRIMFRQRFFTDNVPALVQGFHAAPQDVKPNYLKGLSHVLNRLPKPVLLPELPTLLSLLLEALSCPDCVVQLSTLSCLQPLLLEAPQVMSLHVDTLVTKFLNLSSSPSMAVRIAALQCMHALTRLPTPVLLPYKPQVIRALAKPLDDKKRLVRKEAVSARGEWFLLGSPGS
UniProt P14174: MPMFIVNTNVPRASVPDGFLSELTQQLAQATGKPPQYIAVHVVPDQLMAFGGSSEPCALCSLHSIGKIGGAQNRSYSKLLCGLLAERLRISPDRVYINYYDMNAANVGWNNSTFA
UniProt Q9BRT3: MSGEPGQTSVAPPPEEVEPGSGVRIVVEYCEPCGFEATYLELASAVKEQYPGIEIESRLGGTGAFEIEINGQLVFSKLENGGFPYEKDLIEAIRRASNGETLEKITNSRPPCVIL
UniProt Q9BWT6: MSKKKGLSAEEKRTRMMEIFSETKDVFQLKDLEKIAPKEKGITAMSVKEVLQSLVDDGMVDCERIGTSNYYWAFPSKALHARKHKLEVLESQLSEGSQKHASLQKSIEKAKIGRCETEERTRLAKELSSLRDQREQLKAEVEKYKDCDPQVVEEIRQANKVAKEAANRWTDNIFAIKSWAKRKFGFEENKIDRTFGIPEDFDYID
UniProt Q9NV56, whole entry, looked up: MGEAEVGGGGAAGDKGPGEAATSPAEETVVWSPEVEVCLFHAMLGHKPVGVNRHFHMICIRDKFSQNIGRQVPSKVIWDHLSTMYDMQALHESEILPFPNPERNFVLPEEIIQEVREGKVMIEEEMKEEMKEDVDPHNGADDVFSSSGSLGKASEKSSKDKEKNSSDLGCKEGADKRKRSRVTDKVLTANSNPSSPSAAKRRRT
UniProt Q9HC36: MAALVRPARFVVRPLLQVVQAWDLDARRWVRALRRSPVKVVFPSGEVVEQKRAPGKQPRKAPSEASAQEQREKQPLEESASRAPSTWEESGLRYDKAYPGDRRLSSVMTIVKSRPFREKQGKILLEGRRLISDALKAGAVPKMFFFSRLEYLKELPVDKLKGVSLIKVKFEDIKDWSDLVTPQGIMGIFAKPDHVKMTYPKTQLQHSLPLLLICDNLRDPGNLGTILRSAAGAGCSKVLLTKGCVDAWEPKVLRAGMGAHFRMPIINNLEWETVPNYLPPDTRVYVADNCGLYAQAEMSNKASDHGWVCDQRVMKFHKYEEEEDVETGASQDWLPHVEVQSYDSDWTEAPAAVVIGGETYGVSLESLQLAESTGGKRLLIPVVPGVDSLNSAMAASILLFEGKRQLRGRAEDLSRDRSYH
UniProt Q9NZB8: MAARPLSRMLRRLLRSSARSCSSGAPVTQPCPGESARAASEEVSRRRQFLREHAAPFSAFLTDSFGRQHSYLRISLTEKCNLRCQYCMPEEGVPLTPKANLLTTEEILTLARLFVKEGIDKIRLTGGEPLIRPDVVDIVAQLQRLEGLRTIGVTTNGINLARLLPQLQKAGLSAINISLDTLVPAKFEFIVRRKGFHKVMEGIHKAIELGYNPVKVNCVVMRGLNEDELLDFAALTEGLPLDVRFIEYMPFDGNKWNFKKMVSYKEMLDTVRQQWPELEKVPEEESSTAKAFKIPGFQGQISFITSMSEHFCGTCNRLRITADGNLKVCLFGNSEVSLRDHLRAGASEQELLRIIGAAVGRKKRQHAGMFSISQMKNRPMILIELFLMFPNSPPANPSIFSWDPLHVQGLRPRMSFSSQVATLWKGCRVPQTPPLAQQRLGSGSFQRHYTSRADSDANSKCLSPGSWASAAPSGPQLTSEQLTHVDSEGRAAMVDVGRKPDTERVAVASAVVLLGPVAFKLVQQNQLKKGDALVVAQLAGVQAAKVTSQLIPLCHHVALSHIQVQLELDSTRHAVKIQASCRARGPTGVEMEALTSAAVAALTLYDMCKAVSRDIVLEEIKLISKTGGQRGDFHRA
UniProt Q8N4V1: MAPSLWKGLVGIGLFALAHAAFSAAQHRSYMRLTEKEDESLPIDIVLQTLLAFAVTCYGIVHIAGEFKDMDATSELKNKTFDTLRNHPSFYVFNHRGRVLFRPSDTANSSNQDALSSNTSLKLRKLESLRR
UniProt Q9NZW5: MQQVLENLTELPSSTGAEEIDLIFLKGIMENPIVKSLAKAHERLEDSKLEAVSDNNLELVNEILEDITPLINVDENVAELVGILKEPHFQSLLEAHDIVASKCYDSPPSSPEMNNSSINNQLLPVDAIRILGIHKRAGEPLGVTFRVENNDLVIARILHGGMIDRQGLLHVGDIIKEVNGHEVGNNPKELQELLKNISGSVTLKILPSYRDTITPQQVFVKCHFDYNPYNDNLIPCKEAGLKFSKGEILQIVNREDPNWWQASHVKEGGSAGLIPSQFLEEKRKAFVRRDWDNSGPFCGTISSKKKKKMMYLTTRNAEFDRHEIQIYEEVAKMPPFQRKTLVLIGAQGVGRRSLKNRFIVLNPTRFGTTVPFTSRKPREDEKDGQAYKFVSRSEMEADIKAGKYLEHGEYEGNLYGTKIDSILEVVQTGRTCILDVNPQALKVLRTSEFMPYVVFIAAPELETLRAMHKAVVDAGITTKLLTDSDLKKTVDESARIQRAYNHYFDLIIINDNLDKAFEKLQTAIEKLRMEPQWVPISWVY
UniProt Q96EN8: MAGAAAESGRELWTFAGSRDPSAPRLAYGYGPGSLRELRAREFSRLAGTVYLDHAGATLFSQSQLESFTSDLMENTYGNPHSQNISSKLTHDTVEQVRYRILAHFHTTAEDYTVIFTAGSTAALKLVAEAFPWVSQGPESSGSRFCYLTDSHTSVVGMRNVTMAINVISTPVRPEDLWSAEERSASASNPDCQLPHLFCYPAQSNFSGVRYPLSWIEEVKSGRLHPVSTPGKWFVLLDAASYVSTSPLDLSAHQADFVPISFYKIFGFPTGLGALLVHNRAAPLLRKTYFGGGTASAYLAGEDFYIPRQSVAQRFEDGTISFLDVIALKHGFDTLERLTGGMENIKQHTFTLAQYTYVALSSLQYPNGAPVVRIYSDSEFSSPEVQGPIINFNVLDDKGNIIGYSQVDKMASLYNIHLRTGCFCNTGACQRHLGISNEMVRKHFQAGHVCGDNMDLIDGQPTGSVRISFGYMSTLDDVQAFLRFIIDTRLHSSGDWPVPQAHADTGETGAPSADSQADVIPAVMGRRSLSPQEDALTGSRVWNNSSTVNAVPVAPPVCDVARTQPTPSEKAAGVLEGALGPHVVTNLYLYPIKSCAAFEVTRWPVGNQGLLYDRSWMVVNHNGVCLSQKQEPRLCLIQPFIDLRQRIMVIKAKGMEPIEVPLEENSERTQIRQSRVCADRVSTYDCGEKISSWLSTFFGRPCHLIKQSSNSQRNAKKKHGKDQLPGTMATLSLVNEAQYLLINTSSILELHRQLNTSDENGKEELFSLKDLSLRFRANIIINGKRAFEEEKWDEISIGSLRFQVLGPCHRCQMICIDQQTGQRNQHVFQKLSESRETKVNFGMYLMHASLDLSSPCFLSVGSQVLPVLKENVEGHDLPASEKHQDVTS
UniProt Q5TGZ0: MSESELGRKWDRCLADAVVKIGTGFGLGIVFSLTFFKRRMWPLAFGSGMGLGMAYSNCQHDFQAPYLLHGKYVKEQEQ
UniProt Q8NHP6: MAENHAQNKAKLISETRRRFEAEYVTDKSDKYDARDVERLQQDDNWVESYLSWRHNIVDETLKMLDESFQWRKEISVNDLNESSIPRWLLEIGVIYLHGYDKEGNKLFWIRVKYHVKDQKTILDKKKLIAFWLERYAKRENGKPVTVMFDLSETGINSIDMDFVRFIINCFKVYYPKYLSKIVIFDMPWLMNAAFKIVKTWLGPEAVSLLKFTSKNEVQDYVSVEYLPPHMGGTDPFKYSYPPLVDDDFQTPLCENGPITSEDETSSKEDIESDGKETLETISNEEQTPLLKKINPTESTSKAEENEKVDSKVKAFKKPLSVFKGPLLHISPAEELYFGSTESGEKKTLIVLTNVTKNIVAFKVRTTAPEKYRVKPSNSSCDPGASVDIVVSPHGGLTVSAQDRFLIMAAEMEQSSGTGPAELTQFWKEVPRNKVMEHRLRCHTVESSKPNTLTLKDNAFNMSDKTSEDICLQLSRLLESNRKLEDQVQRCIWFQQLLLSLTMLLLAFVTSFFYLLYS
UniProt Q8IY33: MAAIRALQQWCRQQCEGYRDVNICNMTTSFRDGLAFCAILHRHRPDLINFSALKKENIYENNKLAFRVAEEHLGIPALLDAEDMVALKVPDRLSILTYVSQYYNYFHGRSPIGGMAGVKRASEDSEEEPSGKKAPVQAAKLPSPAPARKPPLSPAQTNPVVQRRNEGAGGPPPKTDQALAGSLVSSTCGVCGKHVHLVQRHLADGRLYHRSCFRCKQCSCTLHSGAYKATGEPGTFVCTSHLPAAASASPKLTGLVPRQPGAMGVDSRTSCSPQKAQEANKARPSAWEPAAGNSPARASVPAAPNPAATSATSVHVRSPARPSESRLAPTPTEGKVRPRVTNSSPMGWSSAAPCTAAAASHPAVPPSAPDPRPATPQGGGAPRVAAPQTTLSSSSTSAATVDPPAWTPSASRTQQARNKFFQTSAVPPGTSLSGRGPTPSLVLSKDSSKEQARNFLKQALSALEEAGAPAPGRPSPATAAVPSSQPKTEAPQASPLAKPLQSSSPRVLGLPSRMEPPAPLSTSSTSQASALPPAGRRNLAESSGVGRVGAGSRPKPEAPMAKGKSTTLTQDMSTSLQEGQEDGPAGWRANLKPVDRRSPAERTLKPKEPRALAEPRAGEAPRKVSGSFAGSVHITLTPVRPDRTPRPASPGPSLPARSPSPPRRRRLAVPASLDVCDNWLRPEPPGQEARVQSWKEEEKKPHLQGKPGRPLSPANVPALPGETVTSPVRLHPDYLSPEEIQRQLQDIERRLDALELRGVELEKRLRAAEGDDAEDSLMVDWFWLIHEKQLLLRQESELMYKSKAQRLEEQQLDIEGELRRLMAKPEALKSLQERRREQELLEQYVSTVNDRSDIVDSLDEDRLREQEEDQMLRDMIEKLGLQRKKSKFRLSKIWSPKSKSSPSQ

Tests used:
Assay in all cases: log2 fold change, soluble protein after heating vs DMSO (PISA); higher = thermal stabilisation; K562 cells, 10 uM, 30 min; active = over 0.2 and 3.5 SD of the protein, either way, in both replicates (recomputed)
[1] = compound: NC(=O)Nc1cc(-c2cccc(F)c2)sc1C(=O)N[C@H]1CCCNC1
In short: (§1)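 Thermal stability values are relative to control samples and come from duplicates. They are expressed as log2 fold changes. For measurement, K562 cells (2×10^6 cells/mL) received 10 μM compound for 30 min, and aliquots were heated for 3 min over 48°C-58°C, pooled, and extracted at 4°C in PBS with 0.5% NP-40. Soluble protein, the supernatant after 21,000xg for 90 min, was quantified by TMTpro 16plex LC-MS/MS with equalised channel sums.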

[2] = compound: NC(=O)c1cnc(N[C@@H]2CCCC[C@@H]2N)nc1Nc1cccc(-n2nccn2)c1
In short: as §1

[3] = compound: NC1(c2ccc(-c3nc4ccn5c(=O)[nH]nc5c4cc3-c3ccccc3)cc2)CCC1
In short: as §1

[4] = compound: NCC(=O)Nc1ccc(-n2nc(C(F)(F)F)cc2-c2ccc3c(ccc4ccccc43)c2)cc1
In short: as §1

entinostat = compound: Nc1ccccc1NC(=O)c1ccc(CNC(=O)OCc2cccnc2)cc1 [entinostat]
In short: as §1

vorinostat = compound: O=C(CCCCCCC(=O)Nc1ccccc1)NO [vorinostat]
In short: as §1

citarinostat = compound: O=C(CCCCCCNC(=O)c1cnc(N(c2ccccc2)c2ccccc2Cl)nc1)NO [citarinostat]
In short: as §1

silmitasertib = compound: O=C(O)c1ccc2c(c1)nc(Nc1cccc(Cl)c1)c1ccncc12 [silmitasertib]
In short: as §1

[5] = compound: O=C1NC(=O)C(c2cnc3ccccn23)=C1c1cn2c3c(cc(F)cc13)CN(C(=O)N1CCCCC1)CC2
In short: as §1

[6] = compound: c1cc(OCCN2CCCCC2)cc(-c2n[nH]c3ccc(-c4nnc[nH]4)cc23)c1
In short: as §1

entospletinib = compound: c1cn2cc(-c3ccc4cn[nH]c4c3)nc(Nc3ccc(N4CCOCC4)cc3)c2n1 [entospletinib]
In short: as §1

Measured: log2 fold change

MNAT1 (UniProt P51948)
inactive: [1] -0.055 | [2] -0.039 | [3] 0.005 | [4] -0.058 | entinostat -0.028 | vorinostat -0.003 | citarinostat 0.078 | silmitasertib -0.015 | [5] -0.047 | [6] -0.036

MIEF1 (UniProt Q9NQG6)
inactive: [1] -0.001 | [2] -0.14 | [3] -0.215 | [4] -0.034 | entinostat 0.056 | vorinostat 0.019 | citarinostat 0.073 | silmitasertib 0.006 | [5] 0.031 | [6] -0.01

MMS19 isoform 8 (UniProt Q96T76)
inactive: [1] 0.01 | [2] -0.026 | [3] -0.157 | [4] -0.072 | entinostat 0.066 | vorinostat 0.017 | citarinostat 0.097 | silmitasertib 0.085 | [5] -0.003 | [6] -0.007

MIF (UniProt P14174)
inactive: [1] -0.059 | [2] 0.092 | [3] 0.103 | [4] 0.048 | entinostat 0.099 | vorinostat -0.085 | citarinostat -0.013 | silmitasertib 0.036 | [5] -0.196 | [6] 0.063

MKKS (UniProt Q9HB66)
inactive: [1] -0.039 | [2] 0.125 | [3] 0.002 | [4] -0.128 | entinostat 0.041 | vorinostat -0.164 | citarinostat 0 | silmitasertib 0.031 | [5] -0.177 | [6] -0.107 | entospletinib 0.086

MIS12 (UniProt Q9H081)
inactive: [1] 0.016 | [2] -0.084 | [3] -0.079 | [4] -0.101 | entinostat 0.027 | vorinostat 0.123 | citarinostat 0.014 | silmitasertib 0.016 | [5] 0.02 | [6] -0.081

MIEN1 (UniProt Q9BRT3)
inactive: [1] 0.045 | [2] 0.003 | [3] -0.013 | [4] 0.001 | entinostat 0.016 | vorinostat -0.042 | citarinostat -0.007 | silmitasertib 0.004 | [5] -0.131 | [6] 0.057

MND1 (UniProt Q9BWT6)
inactive: [1] -0.024 | [2] -0.012 | [3] -0.118 | [4] -0.119 | entinostat 0.041 | vorinostat -0.11 | citarinostat -0.033 | silmitasertib -0.014 | [5] -0.042 | [6] -0.146

MRGBP (UniProt Q9NV56)
inactive: [1] 0.045 | [2] -0.042 | [3] 0.083 | [4] -0.025 | entinostat -0.015 | vorinostat -0.035 | citarinostat -0.115 | silmitasertib 0.094 | [5] 0.021 | [6] -0.005 | entospletinib 0.031

MRPL49 (UniProt Q13405)
inactive: [1] -0.05 | [2] 0.022 | [3] 0.033 | [4] 0.037 | entinostat 0.042 | vorinostat -0.06 | citarinostat -0.053 | silmitasertib 0.036 | [5] -0.11 | [6] -0.066 | entospletinib 0.146

MOB4 (UniProt Q9Y3A3)
inactive: [1] -0.001 | [2] 0.023 | [3] -0.036 | [4] 0.005 | entinostat -0.019 | vorinostat 0.005 | citarinostat 0.071 | silmitasertib 0.004 | [5] -0.026 | [6] -0.009 | entospletinib -0.049

2 records drawn at random from the list so far:
MRGBP (UniProt Q9NV56)
inactive: [1] 0.045 | [2] -0.042 | [3] 0.083 | [4] -0.025 | entinostat -0.015 | vorinostat -0.035 | citarinostat -0.115 | silmitasertib 0.094 | [5] 0.021 | [6] -0.005 | entospletinib 0.031

MIEN1 (UniProt Q9BRT3)
inactive: [1] 0.045 | [2] 0.003 | [3] -0.013 | [4] 0.001 | entinostat 0.016 | vorinostat -0.042 | citarinostat -0.007 | silmitasertib 0.004 | [5] -0.131 | [6] 0.057

Additional results.

MRM3 (UniProt Q9HC36)
inactive: [1] 0.096 | [2] 0.032 | [3] 0.354 | [4] 0.118 | entinostat -0.081 | vorinostat 0.004 | citarinostat -0.097 | silmitasertib 0.151 | [5] 0.211 | [6] -0.161 | entospletinib 0.105

MOCS1 isoform 8 (UniProt Q9NZB8)
inactive: [1] 0.015 | [2] 0.017 | [3] -0.021 | [4] -0.039 | entinostat -0.026 | vorinostat -0.072 | citarinostat -0.01 | silmitasertib 0.033 | [5] -0.054 | [6] -0.001 | entospletinib 0.02

MPDU1 (UniProt O75352)
inactive: [1] 0.063 | [2] 0.061 | [3] -0.087 | [4] 0.025 | entinostat 0.067 | vorinostat -0.075 | citarinostat 0.036 | silmitasertib 0.016 | [5] 0.169 | [6] -0.013 | entospletinib -0.022

MRPL17 (UniProt Q9NRX2)
inactive: [1] 0.038 | [2] 0.032 | [3] 0.01 | [4] 0.033 | entinostat 0.03 | vorinostat 0.035 | citarinostat -0.024 | silmitasertib -0.018 | [5] -0.015 | [6] -0.102 | entospletinib 0.026

MRPL48 (UniProt Q96GC5)
inactive: [1] -0.081 | [2] 0.07 | [3] 0.098 | [4] 0.04 | entinostat 0.012 | vorinostat 0.107 | citarinostat -0.007 | silmitasertib 0.014 | [5] 0.035 | [6] -0.109 | entospletinib 0.062

MMGT1 isoform 2 (UniProt Q8N4V1)
inactive: [1] 0 | [2] 0.017 | [3] -0.063 | [4] -0.029 | entinostat 0.056 | vorinostat 0.095 | citarinostat 0.017 | silmitasertib 0.049 | [5] -0.098 | [6] -0.041 | entospletinib -0.033

MPP6 (UniProt Q9NZW5)
inactive: [1] -0.143 | [2] -0.015 | [3] -0.07 | [4] -0.03 | entinostat -0.009 | vorinostat 0.01 | citarinostat 0.063 | silmitasertib -0.009 | [5] -0.06 | [6] -0.055 | entospletinib 0.018

MRPL11 (UniProt Q9Y3B7)
inactive: [1] -0.018 | [2] 0.103 | [3] 0.033 | [4] 0.116 | entinostat -0.03 | vorinostat 0.06 | citarinostat 0.049 | silmitasertib -0.036 | [5] -0.02 | [6] -0.058 | entospletinib 0.068

MRPL14 (UniProt Q6P1L8)
inactive: [1] -0.028 | [2] 0.069 | [3] -0.066 | [4] 0.026 | entinostat -0.113 | vorinostat 0.016 | citarinostat -0.01 | silmitasertib -0.039 | [5] 0.088 | [6] -0.083 | entospletinib -0.003

MOCOS (UniProt Q96EN8)
inactive: [1] -0.057 | [2] 0.024 | [3] -0.068 | [4] -0.01 | entinostat -0.022 | vorinostat 0.01 | citarinostat -0.118 | silmitasertib 0.093 | [5] -0.135 | [6] -0.045 | entospletinib 0.093

MICOS10 (UniProt Q5TGZ0)
inactive: [1] 0.021 | [2] -0.098 | [3] -0.09 | [4] -0.152 | entinostat 0 | vorinostat -0.188 | citarinostat 0.007 | silmitasertib 0.014 | [5] -0.064 | [6] -0.024 | entospletinib 0.01

MOSPD2 (UniProt Q8NHP6)
inactive: [1] -0.02 | [2] 0 | [3] -0.17 | [4] -0.06 | entinostat 0.003 | vorinostat 0.036 | citarinostat 0.011 | silmitasertib 0.036 | [5] -0.003 | [6] 0.017 | entospletinib -0.007

MRPL10 isoform 2 (UniProt Q7Z7H8)
inactive: [1] -0.027 | [2] -0.042 | [3] -0.096 | [4] -0.009 | entinostat -0.021 | vorinostat 0.004 | citarinostat -0.121 | silmitasertib 0.058 | [5] 0.017 | [6] 0.019 | entospletinib 0.111

MICALL2 (UniProt Q8IY33)
inactive: [1] 0.004 | [2] -0.026 | [3] -0.249 | [4] -0.081 | entinostat -0.017 | vorinostat 0.015 | citarinostat 0.023 | silmitasertib -0.097 | [5] -0.052 | [6] 0.015 | entospletinib -0.001

MRPL22 (UniProt Q9NWU5)
inactive: [1] -0.012 | [2] 0.067 | [3] -0.077 | [4] 0.08 | entinostat -0.029 | vorinostat 0.062 | citarinostat -0.037 | silmitasertib 0.013 | [5] 0.073 | [6] -0.032 | entospletinib 0.071

MRPL44 (UniProt Q9H9J2)
inactive: [1] 0.056 | [2] 0.058 | [3] 0.025 | [4] 0.11 | entinostat 0.022 | vorinostat 0 | citarinostat 0.056 | silmitasertib 0.002 | [5] 0.007 | [6] -0.148 | entospletinib 0.042

MRPL23 (UniProt Q16540)
inactive: [1] -0.013 | [2] 0.08 | [3] 0.069 | [4] 0.066 | entinostat 0.047 | vorinostat 0.061 | citarinostat 0.002 | silmitasertib -0.054 | [5] 0.025 | [6] -0.063 | entospletinib 0.054
